Reference: paper PMC12268348
Results are given in words; binding and its absence hold for the method and conditions named. In cells and extracts the contact can be indirect. Some entries that bind do so weakly or less than the wild type.

Amino acid sequences for entries named in this document (tags omitted).
UniProt Q9JJ50: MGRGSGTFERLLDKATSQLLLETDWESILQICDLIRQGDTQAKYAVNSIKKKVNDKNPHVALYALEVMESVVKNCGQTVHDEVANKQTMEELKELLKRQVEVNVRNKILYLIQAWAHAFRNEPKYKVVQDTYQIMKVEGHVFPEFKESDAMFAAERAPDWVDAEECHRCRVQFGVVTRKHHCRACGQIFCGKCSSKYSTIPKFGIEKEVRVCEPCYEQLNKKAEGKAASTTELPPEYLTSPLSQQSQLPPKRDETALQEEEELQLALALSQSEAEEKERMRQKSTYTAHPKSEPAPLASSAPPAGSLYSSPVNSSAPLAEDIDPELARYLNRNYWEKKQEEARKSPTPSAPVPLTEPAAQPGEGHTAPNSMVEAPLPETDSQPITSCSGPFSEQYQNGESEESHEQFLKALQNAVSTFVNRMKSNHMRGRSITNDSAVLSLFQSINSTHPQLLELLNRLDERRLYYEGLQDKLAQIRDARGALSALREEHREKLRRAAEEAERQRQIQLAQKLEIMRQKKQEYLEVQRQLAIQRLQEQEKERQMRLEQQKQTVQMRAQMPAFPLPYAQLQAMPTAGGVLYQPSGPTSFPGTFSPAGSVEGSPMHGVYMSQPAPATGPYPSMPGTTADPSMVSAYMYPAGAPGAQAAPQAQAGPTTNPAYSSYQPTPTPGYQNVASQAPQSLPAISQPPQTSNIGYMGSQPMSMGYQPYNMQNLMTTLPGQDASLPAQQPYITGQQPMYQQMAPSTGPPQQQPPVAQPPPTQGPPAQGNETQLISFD

Target: T1, PPARγ coactivator PGC-1α (rat (endogenous in primary FLSs of SD rats)) (UniProt Q9QYK2)
T1 sequence: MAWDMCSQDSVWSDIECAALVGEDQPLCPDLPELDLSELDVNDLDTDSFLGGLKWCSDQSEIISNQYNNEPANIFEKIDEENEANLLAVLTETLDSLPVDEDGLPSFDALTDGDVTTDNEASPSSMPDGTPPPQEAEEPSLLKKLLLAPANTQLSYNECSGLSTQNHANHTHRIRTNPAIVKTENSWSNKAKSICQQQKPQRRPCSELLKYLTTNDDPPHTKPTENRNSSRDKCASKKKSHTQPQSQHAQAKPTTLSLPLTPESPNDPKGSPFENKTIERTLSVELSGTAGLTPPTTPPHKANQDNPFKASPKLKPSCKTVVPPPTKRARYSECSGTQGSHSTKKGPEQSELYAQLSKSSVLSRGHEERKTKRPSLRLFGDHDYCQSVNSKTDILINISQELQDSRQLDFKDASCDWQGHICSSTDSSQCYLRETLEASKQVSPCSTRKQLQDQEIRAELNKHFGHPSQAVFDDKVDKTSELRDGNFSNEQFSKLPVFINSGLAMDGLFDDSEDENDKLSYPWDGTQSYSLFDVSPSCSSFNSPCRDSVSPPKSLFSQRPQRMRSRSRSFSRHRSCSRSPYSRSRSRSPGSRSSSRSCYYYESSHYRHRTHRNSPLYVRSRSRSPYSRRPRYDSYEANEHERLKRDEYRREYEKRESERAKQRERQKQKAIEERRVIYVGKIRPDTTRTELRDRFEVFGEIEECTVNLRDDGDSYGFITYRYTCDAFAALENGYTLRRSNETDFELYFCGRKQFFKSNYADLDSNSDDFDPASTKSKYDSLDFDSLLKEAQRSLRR
Test: co-IP; endogenous proteins in lysates of rat primary FLSs (OE/KD PPARγ-treated); IP/Co-IP lysis buffer; antibody with Protein A/G magnetic beads, 4 °C overnight; washed thrice with lysis buffer; Western blot; IgG control

Substance: Hrs (ESCRT-0 subunit), hepatocyte growth factor-regulated tyrosine kinase substrate (from UniProt Q9JJ50 1-776)
- binding: binds
